Results published in PubChem BioAssay AID1439 (NMMLSC, 2008).
The campaign covered roughly 220,000 compounds. About 770 (0.35%) were called active. Inconclusive results, whose numbers are uncertain, are shown with a selection of clear calls. Rule as the data show it: active = binding response below about 49% or above about 150%; inconclusive = no clear call, values can overlap the other calls; inactive = in between.

Sequences of proteins named here, by UniProt entry; tags and fusion partners are left off.
UniProt P09471, whole entry, looked up: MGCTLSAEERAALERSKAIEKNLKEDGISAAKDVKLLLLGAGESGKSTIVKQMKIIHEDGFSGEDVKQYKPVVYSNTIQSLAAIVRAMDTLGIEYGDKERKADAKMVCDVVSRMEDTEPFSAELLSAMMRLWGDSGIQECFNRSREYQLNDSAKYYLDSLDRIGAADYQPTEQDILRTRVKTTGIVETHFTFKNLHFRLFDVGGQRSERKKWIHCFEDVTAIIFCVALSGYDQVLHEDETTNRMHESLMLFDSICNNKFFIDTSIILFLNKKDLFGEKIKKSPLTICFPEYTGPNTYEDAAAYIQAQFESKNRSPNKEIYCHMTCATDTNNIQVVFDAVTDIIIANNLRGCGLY

target: Guanine nucleotide-binding protein G(o) subunit alpha (Homo sapiens) (UniProt P09471); experiment: RGS7-Galphao binding modulators, primary screen, biochemical, multiplexed bead flow cytometry (AID 1439); conditions: at 10 µM, actives lie on both sides;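 also: fluorescent Galphao held in activated GDP-AlF4 state binding bead-coupled RGS7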

| SMILES | binding response (% of control) |
| --- | --- |
| CCc1ccc(C(=O)c2cnc3ccc(OC)cc3c2N2CCN(CC)CC2)cc1 | inactive: 103% |
| O=C(N/N=C/C1CC2C=CC1C2)c1ccccc1O (stereo not given) | inconclusive: 116% |
| COc1ccc(CNc2nc3nc(C)c(Cl)c(C)n3n2)cc1 | inconclusive: 82.8% |
| O=c1c2ccccc2nnn1Cc1ccc2ccccc2c1 | inactive: 96.2% |
| C=C(C)c1cccc(C(C)(C)NC(=O)NCCN(CC)CC)c1 | inconclusive: 114% |
| CC(C)CCNc1nc2ccccc2nc1NS(=O)(=O)c1cccs1 | inconclusive: 488% |
| OCCNc1nc(Nc2ccc(O)cc2)nc2ccccc12 | inconclusive: 54.6% |
| OCCCN=C1CCCc2c1[nH]c1ccc(Cl)cc21 | inconclusive: 224% |
| Cc1ccc(NC(=O)CN2CCN(CCN=CC3=C(O)CC(c4ccc(C)cc4)CC3=O)CC2)cc1 (stereo not given) | inactive: 100% |
| COc1ccccc1NC(=O)/C(=C/c1cccs1)NC(=O)c1ccco1 | inconclusive: 94.4% |
| CC(NC(=O)C(=O)NN=C1CCCCCC1)c1ccccc1 (stereo not given) | inactive: 101% |
| O=C(O)C1CCCCC1C(=O)Nc1cc(Cl)ccc1Cl (stereo not given) | active: 49.2% |
| O=C(Nc1cccc(NC(=O)c2cccs2)c1)c1cccnc1 | inconclusive: 88.3% |
| O=C(CSC1=NNC(c2ccccn2)S1)Nc1ccccc1 (stereo not given) | inconclusive: 107% |
| CC(C)(CO)CNC(=O)c1ccc(OC2CCN(C(=O)C3CC3)CC2)cc1 | inactive: 101% |
| CN(CC(O)COc1ccc(S(=O)(=O)N2CCOCC2)cc1Cl)C1CCCCC1 (stereo not given) | inconclusive: 117% |
| COc1ccc(C(=O)Nc2ccc3oc(-c4cccc(Cl)c4)cc(=O)c3c2O)cc1 | inconclusive: 80.4% |
| NC(=NC(=O)c1ccc(OCC(F)(F)F)nc1)c1ccccc1 | inconclusive: 84.4% |
| Cc1nccn1CCCNC(=O)CC1C(=O)NCCN1Cc1ccccc1C(F)(F)F (stereo not given) | inconclusive: 78.1% |
| CC1CCCCC1NC(=O)CN1C(=O)c2cccc(N)c2C1=O (stereo not given) | inconclusive: 92.9% |
| COc1ccc(Cl)cc1NC(=O)CN(C)CC(=O)Nc1ccccc1N1CCOCC1 | inconclusive: 115% |
| C/C(=N\NS(=O)(=O)c1ccc(C)cc1)c1ccc(C)s1 | inactive: 89.9% |
| Cc1ccc(C(=O)C[n+]2cc(Br)cc(Br)c2)cc1 | inconclusive: 106% |

3 structures from above, ordered by SMILES length, ascending:

| SMILES | binding response (% of control) |
| --- | --- |
| OCCNc1nc(Nc2ccc(O)cc2)nc2ccccc12 | inconclusive: 54.6% |
| C=C(C)c1cccc(C(C)(C)NC(=O)NCCN(CC)CC)c1 | inconclusive: 114% |
| Cc1ccc(NC(=O)CN2CCN(CCN=CC3=C(O)CC(c4ccc(C)cc4)CC3=O)CC2)cc1 (stereo not given) | inactive: 100% |

Continued:

| SMILES | binding response (% of control) |
| --- | --- |
| CCn1ccnc1CN1CCCC(CO)(Cc2cccc(OC)c2)C1 (stereo not given) | inconclusive: 98.7% |
| CCOC(=O)C1(Cc2cccc(OC)c2)CCN(Cc2cccnc2)CC1 | inactive: 99.9% |
| CC(=O)Nc1ccc(NC(=O)C(C)OC(=O)C2(c3ccc(F)cc3)CCCC2)cc1 (stereo not given) | inconclusive: 101% |
| Cc1cc(C)c(S(=O)(=O)/N=C2/C=C(Sc3ncn[nH]3)C(=O)c3ccccc32)cc1C | inactive: 83.8% |
| COC(=O)CNC(c1ccccc1)c1cc(Cl)ccc1NC(=O)c1cccc(Cl)c1 (stereo not given) | inactive: 105% |
| Cc1ccc(CNC(=O)CNS(=O)(=O)c2ccc3nc(C)sc3c2)cc1 | inactive: 90.2% |
| Cc1nn(C(C)C)c(C)c1[C@@H]1C[C@H]2CN(Cc3cccc(Cl)c3)C(=O)[C@]23CCCN13 | inconclusive: 113% |
| O=C1CC(C(=O)Nc2cccc(F)c2)n2c(nc3ccccc32)N1 (stereo not given) | inconclusive: 100% |
| CC(C)C(NC(=O)c1cccs1)c1nnc(SCC(=O)Nc2nccs2)n1C (stereo not given) | inactive: 102% |
| COc1ccccc1C(=O)N/C(=N/c1nc(C)cc(C)n1)Nc1ccccc1 | inconclusive: -43.2% |
| C/C(=N\NC(=O)c1ccc(OC2OCCOC2Oc2ccc(C(=O)N/N=C(\C)c3ccncc3)cc2)cc1)c1ccncc1 (stereo not given) | inconclusive: -81.8% |
| COC(=O)c1ccc(CN2CCN(CC(C)C)C(CCO)C2)cc1 (stereo not given) | inconclusive: 89.2% |
| O=C(CSc1cccc[n+]1[O-])Nc1ccc2c(c1)OCCO2 | inconclusive: 122% |
| COc1cc2ccc(=O)oc2cc1OCC(O)C(C)(C)O (stereo not given) | inconclusive: 183% |
| CC1Cc2ccccc2N1C(=O)CO/N=C/c1ccc(OC(F)F)cc1 (stereo not given) | inactive: 96.7% |
| COc1ccc(CC(NC(C)=O)C(=O)NC2CCN(c3nc(C)cc(C)c3C#N)CC2)cc1OC (stereo not given) | inconclusive: 110% |
| c1csc(CSc2nc3ccccc3s2)c1 | inactive: 99.9% |
| COc1ccc(C(=O)NCCN2C(=O)S/C(=C\c3cccnc3)C2=O)cc1[N+](=O)[O-] | inconclusive: -238% |
| CNC1(C(N)=O)CCNCC1 | inconclusive: 112% |
| CCC(=Nc1ccccc1O)C1=C(O)CC(c2ccccc2)CC1=O (stereo not given) | inconclusive: 93.4% |
| COCCn1c(=O)[nH]c2cc(C(=O)NCCc3ccc(S(N)(=O)=O)cc3)ccc2c1=O | inconclusive: 109% |
| CC(=O)Nc1cccc(OCCCNC(=O)c2ccc(C(C)(C)C)cc2)c1 | inconclusive: 119% |
| CCOC(=O)c1cc(OCC(=O)NC(C)C(C)C)cc(C(=O)OCC)c1 (stereo not given) | active: -9.68% |

| SMILES | binding response (% of control) |
| --- | --- |
| CCSc1nnc(CNC(=O)c2ccccc2F)n1-c1ccccc1OC | inconclusive: 89.8% |
| CNC(=S)N1N=C(c2ccc(C)cc2)CC1c1ccc(N(C)C)cc1 (stereo not given) | inactive: 103% |
| CCC(=O)N(Cc1cc(=O)[nH]c2ccccc12)c1ccc(C)cc1 | inconclusive: -633% |
| N#Cc1ccc(C23CC4(C2)[C@H](CN(CC2CCCCC2)[C@@H]4c2ccccc2)C3c2ccc(Cl)nc2)cc1 (stereo not given in full) | inconclusive: 106% |
| CC(/C=N/NC(=O)c1ccccn1)=C\c1ccco1 | inconclusive: 91.8% |
| CCN1CCN(CC(=O)N2N=CCC2c2ccccc2)CC1 (stereo not given) | inconclusive: 258% |
| O=C(NNC(=O)c1ccccc1Cl)c1ccco1 | inconclusive: 110% |
| O=C(c1ccc(=O)[nH]n1)N1CCc2ccccc2C1 | inconclusive: 61.5% |
| CNc1ccccc(-c2ccc3cc4c(cc3n2)OCO4)c1=O | inactive: 98.1% |
| Cc1cccc(C)c1NC(=O)COC(=O)C1CC(=O)N(Cc2ccccc2)C1 (stereo not given) | inconclusive: 92.7% |
| O=C(NC(=O)c1ccccc1F)OCc1ccc(Cl)cc1Cl | inconclusive: 123% |
| O=c1c2ccccc2sn1-c1ccccc1 | inactive: 91.2% |
| Cc1cc(NC(=O)c2ccccc2)n(C(C)(C)C)n1 | inconclusive: 73.1% |
| O=C(NCc1cccnc1)Nc1cccc(NC(=O)NCc2cccnc2)c1 | inactive: 102% |
| Cn1cc(CN2CCN(c3ncccn3)CC2)c(-c2cccc(Cl)c2)n1 | inconclusive: 112% |
| COC(=O)Cn1nc(-c2ccc(C)cc2)c2ccccc2c1=O | inactive: 101% |
| Cc1[nH]nc(Nc2ccc(C(C)C)cc2)c1[N+](=O)[O-] | inconclusive: 79.7% |
| C/C(=N\NC(=O)COc1ccccc1F)c1cc2ccccc2o1 | inactive: 102% |
| Nc1nnc(Cc2ccc(F)cc2)s1 | inconclusive: 128% |
| COc1ccc(N=C2S/C(=C\c3ccc(N4CCOCC4)o3)C(=O)N2CCc2c[nH]c3ccccc23)cc1 | inactive: 95.5% |
| CCCc1c(NC(=O)Nc2ccc(Cl)cc2Cl)cnn1-c1ccccc1 | inconclusive: 85.9% |
| O=C(c1ccccc1F)N1CCN(c2cnn(-c3cccc(Cl)c3)c(=O)c2Cl)CC1 | inconclusive: 104% |
| COc1ccccc1NCC(=O)n1nc(C)cc1C | inactive: 101% |

| SMILES | binding response (% of control) |
| --- | --- |
| Cc1ccc(OCC(=O)N2c3ccccc3CC2C)c([N+](=O)[O-])n1 (stereo not given) | inactive: 98.8% |
| CC(=O)NC1C(=O)N=C(SCC(=O)Nc2c(C)cccc2C)NC1=O (stereo not given) | inconclusive: 112% |
| Cc1ccc(Cl)cc1N1CCN(C(=O)Cc2ccc(-n3c(=O)[nH]c4ccsc4c3=O)cc2)CC1 | inactive: 95.1% |
| COC(=O)CCCC1=CC2=C(c3ccccc3)C(=O)C(C)(OC(=O)C3CCCC3)C(=O)C2=CN1C1CCCC1 (stereo not given) | inconclusive: 79.7% |
| CN(C)S(=O)(=O)c1cccc(C(=O)OCC(=O)Nc2sccc2C#N)c1 | active: -17% |
| O=C(CCC1CCCN(c2ncccn2)C1)N1CCN(c2ccccn2)CC1 (stereo not given) | inconclusive: 183% |
| O=C(Nc1ccc2c(c1)OCO2)C1CCN(Cc2cnn(-c3ccccc3)c2-n2cccc2)CC1 | active: 36.7% |
| Nc1ccc2c(c1)Cc1cc([N+](=O)[O-])ccc1-2 | inconclusive: 91.4% |
| CCOc1ccccc1N1CCN(Cc2c(C)n(C)n(-c3ccccc3)c2=O)CC1 | inconclusive: 89.9% |
| CC(=O)OC(COc1ccc(F)cc1)Cn1cnc2ccccc21 (stereo not given) | inconclusive: 101% |
| Cc1ccc2c(c1)NC(c1cccs1)C1=C(CC(C)(C)CC1=O)N2 (stereo not given) | inactive: 97% |
| CC(C)NC(=O)CSc1nnc(-c2ccc(F)cc2)c2ccccc12 | inactive: 99.4% |
| Cc1ccc(S(=O)(=O)N(C)C)cc1NC(=S)N1CCCCC1CO (stereo not given) | inactive: 104% |
| COc1cc2c(cc1OC)CN(Cc1ccc(OC)c(C)c1OC)CC2 | inactive: 93.9% |
| CSc1ccc(C(=O)C2CCCN(C(=O)c3ccc4c(c3)no[n+]4[O-])C2)cc1 (stereo not given) | inconclusive: 34.4% |
| Cc1cc(Cl)ccc1OCc1nc(-c2ccncc2)no1 | inconclusive: 116% |
| N#C/C(=C\Nc1ccc2c(c1)OCCO2)C(=O)NCc1ccco1 | inconclusive: 67.1% |
| COc1ccc(CNC(=O)CCC(=O)Nc2nnc(C(C)C)s2)cc1 | inconclusive: -2.24% |
| NS(=O)(=O)c1cc2c(cc1Cl)NC(Cc1ccccc1)NS2(=O)=O (stereo not given) | inconclusive: 113% |
| COc1ccc2[nH]c(C(=O)Nc3ccc(C)c(F)c3)cc2c1 | inconclusive: 107% |
| COc1ccc2c(c1)[nH]c1c(=O)n(/N=C/c3ccc(OC)c(CN4CCCCC4)c3)cnc12 | inconclusive: 116% |

Of the compounds above, six contain a furan ring, fused or not:

| SMILES | binding response (% of control) |
| --- | --- |
| COc1ccccc1NC(=O)/C(=C/c1cccs1)NC(=O)c1ccco1 | inconclusive: 94.4% |
| CC(/C=N/NC(=O)c1ccccn1)=C\c1ccco1 | inconclusive: 91.8% |
| O=C(NNC(=O)c1ccccc1Cl)c1ccco1 | inconclusive: 110% |
| C/C(=N\NC(=O)COc1ccccc1F)c1cc2ccccc2o1 | inactive: 102% |
| COc1ccc(N=C2S/C(=C\c3ccc(N4CCOCC4)o3)C(=O)N2CCc2c[nH]c3ccccc23)cc1 | inactive: 95.5% |
| N#C/C(=C\Nc1ccc2c(c1)OCCO2)C(=O)NCc1ccco1 | inconclusive: 67.1% |
